PubChem BioAssay AID280 (DTP/NCI, 2004)
The list shows only some results of the screen, not a fair sample: it is rich in T/C values a quarter to a half above the control, in often repeated tests (any T/C) and in doses without a T/C. Further doses and runs are listed elsewhere. T/C gives the treated animals as a percentage of the vehicle group. Some entries give survivors of the animals treated and no T/C: the source files T/C as zero there, which appears to mark a toxic dose or a test without result, not a measured value. Some survivor counts are full or nearly so, which does not show that the dose was tolerated: survival well below the control is almost never listed, so the zero probably covers shortened survival too. Counts of survivors are from the toxicity check (mostly the fifth day) where no day follows; animals may have died later. Schedules are NCI's codes, taken here to give the interval after Q, in days (D) or hours (H), and the number of doses after X. Some structures stand for samples that the source files as different forms (salt, stereo form or complex); doses refer to the form tested. Where survival is the endpoint, the PubChem record calls one and a half times the control and up active, and a quarter to a half above the control has no call in these data; cut-offs in other NCI protocols can differ. Some T/C values are followed by the survivors on the day toxicity was checked, most often the fifth; without a count, all were alive then.

Test system: nude mice, LOX melanoma ip, survival T/C
Assay: NCI In Vivo Anticancer Drug Screen. Data for tumor model Human Amelanotic Melanoma (LOX) (intraperitoneal) in NU/NU BALB/C (nude) mice
Conditions: T/C endpoint: median survival time, higher T/C = longer survival
Procedure: The antitumor activity of compounds was measured in mice bearing transplantable tumors. Survival or tumor size were measured and the results are expressed as the measurement made in the treated group (T) divided by the measurement made in the vehicle treated control group (C). The tumor model used in this assay is Human Amelanotic Melanoma (LOX) (intraperitoneal) in NU/NU BALB/C (nude) mice

[1] = dose: 400.0 mg/kg/injection, schedule: Q04DX003 (ip), vehicle: Klucel (hydroxypropylcellulose) (HPC)
[2] = dose: 300.0 mg/kg/injection, schedule: Q04DX003 (ip), vehicle: saline with Tween-80
[3] = dose: 600.0 mg/kg/injection, schedule: Q04DX003 (ip), vehicle: saline with Tween-80
[4] = dose: 1200.0 mg/kg/injection, schedule: Q04DX003 (ip), vehicle: suspension in saline
[5] = dose: 50.0 mg/kg/injection, schedule: Q04DX003 (ip), vehicle: suspension in saline
[6] = dose: 100.0 mg/kg/injection, schedule: Q04DX003 (ip), vehicle: suspension in saline
[7] = dose: 200.0 mg/kg/injection, schedule: Q04DX003 (ip), vehicle: suspension in saline

Question: Which results are given for `CN(C)CN1C(=O)S/C(=C2\C(=O)N(CN(C)C)c3ccccc32)C1=O`?
Answer: survivor count [1]: 1 of 6 on day 10; survivor count (dose: 800.0 mg/kg/injection, schedule: Q04DX003 (ip), vehicle: Klucel (hydroxypropylcellulose) (HPC)): 0 of 6 on day 10

Question: What does the source list for `CCCCCCNc1nc(NCCCCCC)c2[nH]c(NCCCCCC)nc2n1`?
Answer: T/C (dose: 75.0 mg/kg/injection, schedule: Q04DX003 (ip), vehicle: saline with Tween-80): 127 % of control; T/C [2]: 127 % of control; survivor count [3]: 1 of 6 on day 10

Question: Which results are given for `COC(=O)c1ccc(N=NN(C)COC(C)=O)cc1`?
Answer: T/C (dose: 60.0 mg/kg/injection, schedule: Q04DX003 (ip), vehicle: Klucel (hydroxypropylcellulose) (HPC)): 129 % of control; survivor count [1]: 3 of 6 on day 10; survivor count (dose: 480.0 mg/kg/injection, schedule: Q04DX003 (ip), vehicle: Klucel (hydroxypropylcellulose) (HPC)): 4 of 6 on day 10

Question: With `N[C@@H](Cc1c[nH]c2ccccc12)C(=O)Nc1nncs1` as the compound, how does the survivor count [4] read?
Answer: The survivor count was 0 of 6 on day 10.

Question: How did the survivor count (dose: 600.0 mg/kg/injection, schedule: Q04DX003 (ip), vehicle: suspension in saline) turn out when `CC1=NN(c2cccc(S(=O)(=O)O)c2)C(=O)C1N=Nc1cc(Cl)cc(S(=O)(=O)O)c1O.CC1=NN(c2cccc(S(=O)(=O)O)c2)C(=O)C1N=Nc1cc(Cl)cc(S(=O)(=O)O)c1O.[Cr]` (stereo unspecified) was run?
Answer: The survivor count was 0 of 6 on day 10.

Question: And the survivor count [4]?
Answer: Its survivor count is 0 of 6 on day 10.

Question: Which T/C (dose: 18.0 mg/kg/injection, schedule: Q04DX003 (ip), vehicle: suspension in saline) does the source give for `CC(=O)Nc1ccc(Nc2ccc(C(=C3C=CC(=[N+](C)CCC#N)C=C3)c3ccc(N(C)CCC#N)cc3)cc2)cc1` here?
Answer: The T/C was 125 % of control.

Question: And the T/C (dose: 25.0 mg/kg/injection, schedule: Q04DX003 (ip), vehicle: suspension in saline)?
Answer: Its T/C is 133 % of control.

Question: And the T/C [5]?
Answer: Its T/C is 147 % of control.

Question: What about the T/C [6] of the same compound?
Answer: The T/C was 126 % of control.

Question: What about the survivor count (dose: 139.0 mg/kg/injection, schedule: Q04DX003 (ip), vehicle: suspension in saline) of the same compound?
Answer: Its survivor count is 3 of 6 on day 10.

Question: What about the survivor count [7] of the same compound?
Answer: The survivor count was 1 of 6 on day 10.

Question: What about the survivor count (dose: 400.0 mg/kg/injection, schedule: Q04DX003 (ip), vehicle: suspension in saline) of the same compound?
Answer: Its survivor count is 1 of 4 on day 10.

Question: How did the T/C (dose: 4.0 mg/kg/injection, schedule: Q04DX003 (ip), vehicle: water) turn out when `CC(/C=C/C=C/C=C/C=C/C=C/C(O)=C1/C(=O)C(CCC(=O)O)N(C)C1=O)=C\C(C)C(OC1CC(O)C(O)C(C)O1)C(C)C` (stereo unspecified) was run?
Answer: Its T/C is 143 % of control.

Question: And the T/C (dose: 8.0 mg/kg/injection, schedule: Q04DX003 (ip), vehicle: water)?
Answer: Its T/C is 125 % of control.

Question: What about the T/C (dose: 23.0 mg/kg/injection, schedule: Q04DX003 (ip), vehicle: water) of the same compound?
Answer: The T/C was 139 % of control.

Question: What about the T/C (dose: 38.0 mg/kg/injection, schedule: Q04DX003 (ip), vehicle: water) of the same compound?
Answer: Its T/C is 138 % of control.

Question: What does the source list for `CO[C@@]12[C@@H]3N[C@@H]3CN1C1=C(C(=O)C(NCC3CCCO3)=C(C)C1=O)[C@@H]2COC(N)=O` (stereo partly specified)?
Answer: T/C (dose: 3.13 mg/kg/injection, schedule: Q04DX003 (ip), vehicle: distilled water + Tween-80): 132 % of control; T/C (dose: 6.25 mg/kg/injection, schedule: Q04DX003 (ip), vehicle: distilled water + Tween-80): 128 % of control [5 of 6 alive on day 10]

Question: What does the source list for `CO[C@H](/C(C)=C/C=C/C(C)=C/c1coc(C)n1)[C@H](C)[C@H]1C[C@@H](O)[C@@]2(C)O[C@H]2/C=C/[C@@H](C)[C@@H]2C[C@@H](CC(=O)O2)C[C@H]2O[C@@H]2C(=O)O1`?
Answer: T/C (dose: 0.13 mg/kg/injection, schedule: Q01DX009 (ip), vehicle: other): 133 % of control; T/C (dose: 0.2 mg/kg/injection, schedule: Q01DX009 (ip), vehicle: other): 144 % of control; T/C (dose: 0.33 mg/kg/injection, schedule: Q04DX003 (ip), vehicle: other): 127 % of control; survivor count (dose: 0.44 mg/kg/injection, schedule: Q01DX009 (ip), vehicle: other): 4 of 6 on day 10; survivor count (dose: 0.66 mg/kg/injection, schedule: Q01DX009 (ip), vehicle: other): 0 of 6 on day 10; survivor count (dose: 1.0 mg/kg/injection, schedule: Q01DX009 (ip), vehicle: other): 3 of 10 on day 10

Question: `C=CCNC(=O)c1ccccc1SC(C)=O` was tested. Which T/C (dose: 150.0 mg/kg/injection, schedule: Q04DX003 (ip), vehicle: saline with Tween-80) did it give?
Answer: The T/C was 130 % of control.

Question: And the survivor count [3]?
Answer: The survivor count was 6 of 6 on day 10.

Question: Which survivor count (dose: 100.0 mg/kg/injection, schedule: Q04DX003 (ip), vehicle: saline with Tween-80) does the source give for `CCOC(=O)C(N)C[S][Sn]([CH3])([CH3])[Cl]` (stereo unspecified) here?
Answer: Its survivor count is 1 of 6 on day 10.

Question: And the survivor count (dose: 200.0 mg/kg/injection, schedule: Q04DX003 (ip), vehicle: saline with Tween-80)?
Answer: The survivor count was 0 of 6 on day 10.

Question: How did the survivor count [2] turn out when `c1ccc([Te][Te]c2ccccc2)cc1` was run?
Answer: Its survivor count is 3 of 6 on day 10.

Question: And the survivor count [3]?
Answer: Its survivor count is 1 of 6 on day 10.

Question: Which T/C [5] does the source give for `Oc1ccc(/C=N/Nc2nnc(N/N=C/c3ccc(O)cc3O)c3ccccc23)c(O)c1` here?
Answer: Its T/C is 131 % of control [4 of 6 alive on day 10].

Question: What about the T/C [6] of the same compound?
Answer: Its T/C is 131 % of control.

Question: And the T/C [7]?
Answer: The T/C was 148 % of control.

Question: `O=C1c2cccc(NCCCNCCO)c2C(=O)c2cccc(NCCCNCCO)c21` was tested. Which T/C (dose: 18.75 mg/kg/injection, schedule: Q04DX003 (ip), vehicle: saline) did it give?
Answer: Its T/C is 132 % of control.

Question: And the T/C (dose: 31.0 mg/kg/injection, schedule: Q04DX003 (ip), vehicle: acid diluted with saline)?
Answer: The T/C was 141 % of control.

Question: And the T/C (dose: 52.0 mg/kg/injection, schedule: Q04DX003 (ip), vehicle: acid diluted with saline)?
Answer: The T/C was 137 % of control.

Question: What about the survivor count (dose: 52.08 mg/kg/injection, schedule: Q04DX003 (ip), vehicle: acid diluted with saline) of the same compound?
Answer: The survivor count was 0 of 6 on day 10.

Question: Which results are given for `NC(=O)c1[nH]cnc1O`?
Answer: survivor count (dose: 400.0 mg/kg/injection, schedule: Q04DX003 (ip), vehicle: saline with Tween-80): 5 of 6 on day 10; survivor count (dose: 800.0 mg/kg/injection, schedule: Q04DX003 (ip), vehicle: saline with Tween-80): 1 of 6 on day 10

Question: With `COc1cc(NCc2ccc3nc(N)nc(N)c3c2C)cc(OC)c1OC` as the compound, how does the T/C (dose: 120.0 mg/kg/injection, schedule: Q04DX003 (ip), vehicle: Klucel (hydroxypropylcellulose) (HPC)) read?
Answer: The T/C was 144 % of control.

Question: How did the T/C (dose: 500.0 mg/kg/injection, schedule: Q04DX003 (ip), vehicle: saline) turn out when `Nc1ncc(C2OC(CO)C(O)C2O)c(=O)[nH]1` (stereo unspecified) was run?
Answer: Its T/C is 134 % of control.

Question: And the T/C (dose: 1000.0 mg/kg/injection, schedule: Q04DX003 (ip), vehicle: saline)?
Answer: The T/C was 144 % of control.

Question: Which results are given for `CCC1(O)C(=O)OCc2c1cc1n(c2=O)Cc2cc3cc4c(cc3nc2-1)OCO4` (stereo unspecified)?
Answer: survivor count (dose: 2.0 mg/kg/injection, schedule: Q04DX003 (ip), vehicle: saline with Tween-80): 3 of 6 on day 10; survivor count (dose: 4.0 mg/kg/injection, schedule: Q04DX003 (ip), vehicle: saline with Tween-80): 0 of 6 on day 10; survivor count (dose: 8.0 mg/kg/injection, schedule: Q04DX003 (ip), vehicle: saline with Tween-80): 0 of 6 on day 10; survivor count (dose: 16.0 mg/kg/injection, schedule: Q04DX003 (ip), vehicle: saline with Tween-80): 0 of 6 on day 10; survivor count (dose: 32.0 mg/kg/injection, schedule: Q04DX003 (ip), vehicle: saline with Tween-80): 0 of 6 on day 10

Question: Which survivor count [1] does the source give for `CC(C)(C)NC(C1=CC(C)(C)c2ccccc2C1=O)c1ccccc1` (stereo unspecified) here?
Answer: The survivor count was 0 of 6 on day 10.

Question: With `NCCSC(C[N+](=O)[O-])c1ccccc1Cl` (stereo unspecified) as the compound, how does the T/C (dose: 100.0 mg/kg/injection, schedule: Q04DX003 (ip), vehicle: saline) read?
Answer: Its T/C is 125 % of control.

Question: What about the survivor count (dose: 200.0 mg/kg/injection, schedule: Q04DX003 (ip), vehicle: saline) of the same compound?
Answer: The survivor count was 1 of 6 on day 10.

Question: With `O=C1CN(c2ccccc2)C(=O)C1C(=O)Nc1ccc(Cl)c(Cl)c1` (stereo unspecified) as the compound, how does the T/C (dose: 60.0 mg/kg/injection, schedule: Q04DX003 (ip), vehicle: saline with Tween-80) read?
Answer: The T/C was 125 % of control.

Question: And the T/C (dose: 240.0 mg/kg/injection, schedule: Q04DX003 (ip), vehicle: saline with Tween-80)?
Answer: Its T/C is 132 % of control.

Question: What about the survivor count (dose: 480.0 mg/kg/injection, schedule: Q04DX003 (ip), vehicle: saline with Tween-80) of the same compound?
Answer: Its survivor count is 3 of 6 on day 10.

Question: What about the survivor count (dose: 960.0 mg/kg/injection, schedule: Q04DX003 (ip), vehicle: saline with Tween-80) of the same compound?
Answer: The survivor count was 1 of 6 on day 10.

Question: `CN(C)C(=O)SC1=C(c2c(Cl)cccc2Cl)C(=O)c2ccccc21` was tested. Which survivor count (dose: 1200.0 mg/kg/injection, schedule: Q04DX003 (ip), vehicle: Klucel (hydroxypropylcellulose) (HPC)) did it give?
Answer: The survivor count was 2 of 4 on day 10.
